Source: the supplement of paper PMC10338343
± gives the standard deviation. This is a selection; strong and weak results do not stand in their true shares. The uncertainty is large for many entries.

Legend:
[1] = tested on: MIWI (PIWIL1) piRISC loaded with L1MC piRNA (30 nt); experiment: pre-steady-state target cleavage rate (min^-1); MIWI and MILI are mouse PIWI proteins and EfPiwi is from a freshwater sponge; tags in brackets are library labels; higher = faster piRNA-guided slicing of the target; conditions: guide: L1MC piRNA 5'p-UAACUAAAUACUAUGCAAGCUGUAGGUCCU
Summary of the method: (§1)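 Sequencing of uncleaved targets, normalised to depth and to weakly complementary targets, was the readout of this Cleave-'n-Seq assay. A transcribed, DNA-blocked target RNA library (0.1 nM) was mixed with 1 nM active affinity-purified piRISC carrying one synthetic guide, with or without 500 nM GTSF1 partner protein, in HEPES–potassium acetate buffer at 33 °C for 0–8 or 0–960 min. Three trials were pooled, k3 was capped at 0.0001 min^-1, and a burst-and-steady-state fit gave the pre-steady-state cleavage rate.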

[2] = tested on: MIWI (PIWIL1) piRISC loaded with piRNA #1 (30 nt); experiment: as above; conditions: guide: piRNA #1 5'p-UGAGGUAGUAGGUUGUAUAGUAUCCAGAGG; auxiliary factor: 500 nM mouse GTSF1
Summary of the method: as §1

[3] = auxiliary factor: 500 nM mouse GTSF1
[4] = auxiliary factor: none (no GTSF1)

AGGCACCUACAGCUUGCAUAGUAUUUAGUUA
pre-steady-state target cleavage rate [1, 3]: 2.18 ± 0.8 | pre-steady-state target cleavage rate [1, 4]: 2.2 ± 1.8

GCACUGGUUACUAUACAACCUACUACCUCA
pre-steady-state target cleavage rate [2]: 1.84 ± 0.11

GGAGACCUUACUAAUGAACCUACUACCUCA
pre-steady-state target cleavage rate [2]: 0.00045 ± 0.0055

GGAGACGAUACUAUACAACCUACUACCUCC [g2:g24:cont:t1C]
pre-steady-state target cleavage rate [2]: 1.5 ± 0.075

UCGUCCUACACCUUGCAUAGUAUUUAGUUA
pre-steady-state target cleavage rate [1, 3]: 0.986 ± 0.045 | pre-steady-state target cleavage rate [1, 4]: 0.0586 ± 0.0084

AGGACCUACGCUUGCAUAGUAUUUAGUUA
pre-steady-state target cleavage rate [1, 3]: 1.27 ± 0.066 | pre-steady-state target cleavage rate [1, 4]: 0.0719 ± 0.013

UCGACAUACAGCUUGCAUAGUAUUUAGUUA
pre-steady-state target cleavage rate [1, 3]: 1.38 ± 0.043 | pre-steady-state target cleavage rate [1, 4]: 0.071 ± 0.012

UCGACCUUCAGCUUGCAUAGUAUUUAGAAA
pre-steady-state target cleavage rate [1, 3]: 0.659 ± 0.064 | pre-steady-state target cleavage rate [1, 4]: 0.0103 ± 0.0029

AGGACCUUCAGCUUGCAUAGUAUUUUCAAA
pre-steady-state target cleavage rate [1, 3]: 0.311 ± 0.038 | pre-steady-state target cleavage rate [1, 4]: 0.00593 ± 0.0032

GGAGACCUUACUAUACAACCUACAUGCUCA
pre-steady-state target cleavage rate [2]: 0.00171 ± 0.0038

AGGAGCUACAGCUUGCAUAGUAUUUAGUUA
pre-steady-state target cleavage rate [1, 3]: 1.42 ± 0.055 | pre-steady-state target cleavage rate [1, 4]: 0.0984 ± 0.016

GGAGACCUAUGAUGACAACCUACUACCUCA
pre-steady-state target cleavage rate [2]: 0.00202 ± 0.0041

UCCACCUACACCUUGCAUAGUAUUUACAAA
pre-steady-state target cleavage rate [1, 3]: 0.309 ± 0.053 | pre-steady-state target cleavage rate [1, 4]: 0.00355 ± 0.0022

GCUCUGGAUACUAUACAACCAUCUACCUCA
pre-steady-state target cleavage rate [2]: 0.0463 ± 0.011

UCCACGUACAGCUUGCAUAGUAUUUAGUUA
pre-steady-state target cleavage rate [1, 3]: 1.35 ± 0.047 | pre-steady-state target cleavage rate [1, 4]: 0.0658 ± 0.0097

GGAGACCAUACUAUACGAACCUACUACCUCA
pre-steady-state target cleavage rate [2]: 0.00142 ± 0.0045

GCUCAGGAUACUAUACAACCUACUACCUCA
pre-steady-state target cleavage rate [2]: 1.85 ± 0.11

UCCUGGAUGUCGAUGCAUAGUAUGUUAGUUA
pre-steady-state target cleavage rate [1, 3]: 0.00055 ± 0.018 | pre-steady-state target cleavage rate [1, 4]: 0.000685 ± 0.013

AGCGACCUACAGCUUGCAUAGUAUUUAGUUA
pre-steady-state target cleavage rate [1, 3]: 1.37 ± 0.049 | pre-steady-state target cleavage rate [1, 4]: 0.112 ± 0.019

UGGACGUUCAGCUUGCAUAGUAUUUAGUUA
pre-steady-state target cleavage rate [1, 3]: 1.37 ± 0.052 | pre-steady-state target cleavage rate [1, 4]: 0.0691 ± 0.012

GGUCUGGAUACUAUACAAUCCUACUACCUCA
pre-steady-state target cleavage rate [2]: 0.000826 ± 0.0086

UGGACCUACAGCUUGCAUAGUAUAUAGUAA
pre-steady-state target cleavage rate [1, 3]: 0.356 ± 0.038 | pre-steady-state target cleavage rate [1, 4]: 0.012 ± 0.0037

UGGAACCUACAGCUUGCAUAGUAUUUAGUUA
pre-steady-state target cleavage rate [1, 3]: 1.41 ± 0.1 | pre-steady-state target cleavage rate [1, 4]: 0.0747 ± 0.016

UCCACCUACAGCUUGCUUAGUAUUAAGUUA
pre-steady-state target cleavage rate [1, 3]: 0.31 ± 0.03 | pre-steady-state target cleavage rate [1, 4]: 0.00763 ± 0.0016

UGGACCUACAGCUUGCAUAGAUUUAGUUA
pre-steady-state target cleavage rate [1, 3]: 0.00309 ± 0.0038 | pre-steady-state target cleavage rate [1, 4]: 0.0013 ± 0.0042

GGGCUGGAUACUAUACAACCUACUACCUCA
pre-steady-state target cleavage rate [2]: 1.9 ± 0.12

AGGACCUAAGCUUGCAUAGUAUUUAGUUA
pre-steady-state target cleavage rate [1, 3]: 1.05 ± 0.071 | pre-steady-state target cleavage rate [1, 4]: 0.0685 ± 0.013

UCGACCUACAGCUUGCAUAGUAUUUAGCUUA
pre-steady-state target cleavage rate [1, 3]: 0.375 ± 0.05 | pre-steady-state target cleavage rate [1, 4]: 0.0283 ± 0.0087

UGGACCUACAGCCUGCAUAGUAUUUAGUUA
pre-steady-state target cleavage rate [1, 3]: 1.34 ± 0.048 | pre-steady-state target cleavage rate [1, 4]: 0.0741 ± 0.013

UCCUGGAUGUCCUUGGUUAGUAUUUAGUUA
pre-steady-state target cleavage rate [1, 3]: 0.00278 ± 0.0049 | pre-steady-state target cleavage rate [1, 4]: 0.0012 ± 0.0066

UCCACCUACAGCUUGUAUAGUAUUUAGUUA
pre-steady-state target cleavage rate [1, 3]: 1.18 ± 0.048 | pre-steady-state target cleavage rate [1, 4]: 0.0524 ± 0.0091

GGAGACCUAUGAAUACAACUUACUACCUCA
pre-steady-state target cleavage rate [2]: 0.00112 ± 0.0046

UGGACCUACAGCUUGCAUAGUAUUUAGUCA
pre-steady-state target cleavage rate [1, 3]: 0.934 ± 0.05 | pre-steady-state target cleavage rate [1, 4]: 0.0559 ± 0.011

UGCACCAACAGCUUGCAUAGUAUUUAGUUA
pre-steady-state target cleavage rate [1, 3]: 1.23 ± 0.056 | pre-steady-state target cleavage rate [1, 4]: 0.0613 ± 0.0098

UGGACGUACAGCUUGCAUAGUAUUAAGUUA
pre-steady-state target cleavage rate [1, 3]: 0.721 ± 0.069 | pre-steady-state target cleavage rate [1, 4]: 0.0383 ± 0.0073

GGACUUGGAUACUAUACAACCUACUACCUCA
pre-steady-state target cleavage rate [2]: 1.78 ± 0.11

UCGACCGUACAGCUUGCAUAGUAUUUAGUUA
pre-steady-state target cleavage rate [1, 3]: 1.26 ± 0.046 | pre-steady-state target cleavage rate [1, 4]: 0.0719 ± 0.013

GCUCUGGAUACUAUACAACCUAUCUACCUCA
pre-steady-state target cleavage rate [2]: 0.356 ± 0.028

UGGACCUACAGCUUGAUAGUAUUUAGUUA
pre-steady-state target cleavage rate [1, 3]: 1.03 ± 0.096 | pre-steady-state target cleavage rate [1, 4]: 0.0103 ± 0.003

GGAGACCUAUGAUAUGUUGGUACUACGAGA
pre-steady-state target cleavage rate [2]: 0.000307 ± 0.024

GGAGACCUAUGACUACAACCUACUACCUCA
pre-steady-state target cleavage rate [2]: 0.00138 ± 0.0032

CCUCUGGAUACUAUACAACCUAGUACCUCA
pre-steady-state target cleavage rate [2]: 0.172 ± 0.039

GCUCUAGGAUACUAUACAACCUACUACCUCA
pre-steady-state target cleavage rate [2]: 1.85 ± 0.095

GGUCUGGAUACUAUACAACGUUCUACCUCA
pre-steady-state target cleavage rate [2]: 0.117 ± 0.014

GCUCUGGAUACUAUACAACGAUGAUGGAGA [g12:g29:cont:t1A]
pre-steady-state target cleavage rate [2]: 0.000158 ± 0.033

GGACUGGAUACUAUACAACCUACUAGGACA
pre-steady-state target cleavage rate [2]: 0.000378 ± 0.01

CCUCCUGGAUACUAUACAACCUACUACCUCA
pre-steady-state target cleavage rate [2]: 2.25 ± 0.13

CCUCUGGAUACUAUAGAACCUACAACCUCA
pre-steady-state target cleavage rate [2]: 0.0249 ± 0.007

ACUCUGGAUACUAUACAACCUACUACCUCA
pre-steady-state target cleavage rate [2]: 2.19 ± 0.13

GGACUGGAUACUAUAGAACCUACAACCUCA
pre-steady-state target cleavage rate [2]: 0.00257 ± 0.0029

GGACUGGAUACUAUACAACCUGACUACCUCA
pre-steady-state target cleavage rate [2]: 0.00196 ± 0.0049

CCUCUGGAUACUAUACAACCUACUAACCUCA
pre-steady-state target cleavage rate [2]: 2.09 ± 0.13

GGAGACCUAUGAUAUGUUCCUCCUACCUCA
pre-steady-state target cleavage rate [2]: 0.000167 ± 0.015

GCUCUGGAUACUAUACUAACCUACUACCUCA
pre-steady-state target cleavage rate [2]: 0.00667 ± 0.0041

GGAGACCUAUGAAUACAACCUACGUACCUCA
pre-steady-state target cleavage rate [2]: 0.0016 ± 0.0029

GCUCCUGGAUACUAUACAACCUACUACCUCA
pre-steady-state target cleavage rate [2]: 2.13 ± 0.11

GGACUGGAUACUAUACAACCUAGUACGUCA
pre-steady-state target cleavage rate [2]: 0.00245 ± 0.0032

GGAGAGGAUACUAUACAACCGUACUACCUCA
pre-steady-state target cleavage rate [2]: 0.00128 ± 0.0062

GGAGACCUAUGAACACAACCUACUACCUCA
pre-steady-state target cleavage rate [2]: 0.00134 ± 0.0057

GGAGACCUAUGAUAUCAACCUACACCUCA
pre-steady-state target cleavage rate [2]: 0.000352 ± 0.013

CCUCUGGAUAAUAUACAACCUACUACCUCA
pre-steady-state target cleavage rate [2]: 2.06 ± 0.12

GGAGACCUAUGAUAACAACCUACUACACUCA
pre-steady-state target cleavage rate [2]: 0.00193 ± 0.0034

GGUCUGGCAUACUAUACAACCUACUACCUCA
pre-steady-state target cleavage rate [2]: 1.86 ± 0.12

GGAGACGAUACUAUACAACCUAUACCUCA
pre-steady-state target cleavage rate [2]: 0.0012 ± 0.0061

GCACUGGAUACUAUACAACCUACUACCUCA
pre-steady-state target cleavage rate [2]: 1.81 ± 0.093

GCUCACGAUACUAUACAACCUACUACCUCA
pre-steady-state target cleavage rate [2]: 1.83 ± 0.092

GGAGACCAUACUAUACAUCCUAGUACCUCA
pre-steady-state target cleavage rate [2]: 0.343 ± 0.029

GGACUGGAUACUUUACAACCUACUUCCUCA
pre-steady-state target cleavage rate [2]: 0.00278 ± 0.0028

GGAGACCUAUGAAUACAAGCUACUACCUGA
pre-steady-state target cleavage rate [2]: 0.000321 ± 0.0069

GGUGUGGUUACUAUACAACCUACUACCUCA
pre-steady-state target cleavage rate [2]: 1.54 ± 0.097

GGAGACCUAUGAUUCAACCUACUACCUCA
pre-steady-state target cleavage rate [2]: 0.00103 ± 0.0046
